PubChem BioAssay AID1224830 – NIAID | 2016
Aim: 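Genes whose knock-down alters the TNF-alpha reporter response to LPS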 (primary screen). Cell system: human THP-1 monocytic leukaemia cells, TNF dual-luciferase reporter clone, PMA-differentiated to macrophage-like cells. Knock-down reagent: siRNA pool against human genes, 50 nM. Timing: LPS for 4 h, given about 3 days after siRNA transfection. Conditions: bacterial LPS (TLR4 ligand), 10 ng/ml. Measured: 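Ratio of firefly to renilla light, scaled to the plate median and expressed as a robust z-score per replicate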. Direction: TNF reporter robust z-score: higher = stronger TNF reporter response to LPS. Rule for the call: 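a well is active when its z-score exceeds 2.8 or falls below -1.5; control wells carry no call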.
The deposit covers about 18,000 reagents; this is a random part of them. About 2,900 of them (16%) count as active. 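Calls are made per well; low scores hint the gene aids the LPS response, high scores that it dampens it.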 Repeated entries: four replicate wells of each siRNA pool.

TMEM63A (transmembrane protein 63A) [SID315453512]: TNF reporter robust z-score = -0.53; activity call = inactive
TMEM63A (transmembrane protein 63A) [SID315453512]: TNF reporter robust z-score = -0.35; activity call = inactive
TMEM63A (transmembrane protein 63A) [SID315453512]: TNF reporter robust z-score = -0.43; activity call = inactive
TMEM63A (transmembrane protein 63A) [SID315453512]: TNF reporter robust z-score = -0.49; activity call = inactive
ACER3 (alkaline ceramidase 3) [SID315457602]: TNF reporter robust z-score = -0.11; activity call = inactive
ACER3 (alkaline ceramidase 3) [SID315457602]: TNF reporter robust z-score = 0.78; activity call = inactive
ACER3 (alkaline ceramidase 3) [SID315457602]: TNF reporter robust z-score = 0.26; activity call = inactive
ACER3 (alkaline ceramidase 3) [SID315457602]: TNF reporter robust z-score = 0.8; activity call = inactive
DYNLL2 (dynein light chain LC8-type 2) [SID315462132]: TNF reporter robust z-score = 1.57; activity call = inactive
DYNLL2 (dynein light chain LC8-type 2) [SID315462132]: TNF reporter robust z-score = 1.03; activity call = inactive
DYNLL2 (dynein light chain LC8-type 2) [SID315462132]: TNF reporter robust z-score = 0.19; activity call = inactive
DYNLL2 (dynein light chain LC8-type 2) [SID315462132]: TNF reporter robust z-score = 1.78; activity call = inactive
SLC30A6 [SID315457764]: TNF reporter robust z-score = 0.62; activity call = inactive
SLC30A6 [SID315457764]: TNF reporter robust z-score = 0.92; activity call = inactive
SLC30A6 [SID315457764]: TNF reporter robust z-score = -0.09; activity call = inactive
SLC30A6 [SID315457764]: TNF reporter robust z-score = 0.01; activity call = inactive
SRPK1 (SRSF protein kinase 1) [SID315451640]: TNF reporter robust z-score = -1.79; activity call = active
SRPK1 (SRSF protein kinase 1) [SID315451640]: TNF reporter robust z-score = -1.77; activity call = active
SRPK1 (SRSF protein kinase 1) [SID315451640]: TNF reporter robust z-score = -1.94; activity call = active
SRPK1 (SRSF protein kinase 1) [SID315451640]: TNF reporter robust z-score = -1.51; activity call = active
ATG9B (autophagy related 9B) [SID315463888]: TNF reporter robust z-score = -0.9; activity call = inactive
ATG9B (autophagy related 9B) [SID315463888]: TNF reporter robust z-score = -0.75; activity call = inactive
ATG9B (autophagy related 9B) [SID315463888]: TNF reporter robust z-score = -1.14; activity call = inactive
ATG9B (autophagy related 9B) [SID315463888]: TNF reporter robust z-score = -0.16; activity call = inactive

Targets above whose gene name begins with D or d:
DYNLL2 (dynein light chain LC8-type 2) [SID315462132]: TNF reporter robust z-score = 1.57; activity call = inactive
DYNLL2 (dynein light chain LC8-type 2) [SID315462132]: TNF reporter robust z-score = 1.03; activity call = inactive
DYNLL2 (dynein light chain LC8-type 2) [SID315462132]: TNF reporter robust z-score = 0.19; activity call = inactive
DYNLL2 (dynein light chain LC8-type 2) [SID315462132]: TNF reporter robust z-score = 1.78; activity call = inactive

Continued.
SSTR4 (somatostatin receptor 4) [SID315451657]: TNF reporter robust z-score = -1; activity call = inactive
SSTR4 (somatostatin receptor 4) [SID315451657]: TNF reporter robust z-score = -0.87; activity call = inactive
SSTR4 (somatostatin receptor 4) [SID315451657]: TNF reporter robust z-score = -1.11; activity call = inactive
H1-5 (H1.5 linker histone, cluster member) [SID315449133]: TNF reporter robust z-score = -1.14; activity call = inactive
H1-5 (H1.5 linker histone, cluster member) [SID315449133]: TNF reporter robust z-score = -1.28; activity call = inactive
H1-5 (H1.5 linker histone, cluster member) [SID315449133]: TNF reporter robust z-score = -1.31; activity call = inactive
H1-5 (H1.5 linker histone, cluster member) [SID315449133]: TNF reporter robust z-score = -0.98; activity call = inactive
SELENON (selenoprotein N) [SID315458327]: TNF reporter robust z-score = -0.27; activity call = inactive
SELENON (selenoprotein N) [SID315458327]: TNF reporter robust z-score = -0.75; activity call = inactive
SELENON (selenoprotein N) [SID315458327]: TNF reporter robust z-score = -0.24; activity call = inactive
SELENON (selenoprotein N) [SID315458327]: TNF reporter robust z-score = 0.09; activity call = inactive
CIMAP1D (CIMAP1 family member D) [SID315463786]: TNF reporter robust z-score = 1.22; activity call = inactive
CIMAP1D (CIMAP1 family member D) [SID315463786]: TNF reporter robust z-score = 0.9; activity call = inactive
CIMAP1D (CIMAP1 family member D) [SID315463786]: TNF reporter robust z-score = 0.22; activity call = inactive
CIMAP1D (CIMAP1 family member D) [SID315463786]: TNF reporter robust z-score = 1.35; activity call = inactive
RFPL1 (ret finger protein like 1) [SID315451110]: TNF reporter robust z-score = 2.06; activity call = inactive
RFPL1 (ret finger protein like 1) [SID315451110]: TNF reporter robust z-score = -0.91; activity call = inactive
RFPL1 (ret finger protein like 1) [SID315451110]: TNF reporter robust z-score = -0.96; activity call = inactive
RFPL1 (ret finger protein like 1) [SID315451110]: TNF reporter robust z-score = 1.53; activity call = inactive
TUBD1 (tubulin delta 1) [SID315456530]: TNF reporter robust z-score = -0.53; activity call = inactive
TUBD1 (tubulin delta 1) [SID315456530]: TNF reporter robust z-score = -0.98; activity call = inactive
TUBD1 (tubulin delta 1) [SID315456530]: TNF reporter robust z-score = -1.29; activity call = inactive
TUBD1 (tubulin delta 1) [SID315456530]: TNF reporter robust z-score = -1.24; activity call = inactive
